Measurements reported in PubChem BioAssay AID686943 (Drosophila RNAi Screening Center, 2013)
Purpose: 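Fly genes whose loss alters ERK activation after insulin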 (primary screen). Cells: Drosophila S2R+ haemocyte-like cells expressing YFP-tagged ERK (Rolled). Reagent: long dsRNA against Drosophila genes. Conditions: insulin stimulation versus unstimulated cells; dose and duration not given. Measured: 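Per-plate z-scores of phospho-ERK immunostaining normalised to YFP-tagged ERK, measured with and without insulin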. Scale: replicate 1, z-score of dpERK with insulin: higher = more active ERK per ERK-YFP after insulin.
In all, the deposit lists about 23,000 reagents; this is a random part of those with a known target gene and a result. 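Extra replicates exist only for a retested subset of genes; insulin dose and duration not given; both raised and lowered dpERK matter.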 The numbers tell different reagents against one gene apart. Further read-outs or replicates are left out here. Not given: the amount of reagent, the time to read-out.

no.	target gene	dsRNA no.	replicate 1, z-score of dpERK with insulin
1	Mdr65 (Multi drug resistance 65)	1	-0.01
2	CG11149	1	-0.71
3	CG13045	1	0.59
4	Acadvl (Acyl-CoA dehydrogenase very long chain)	1	0.31
5	S-Lap5 (Sperm-Leucylaminopeptidase 5)	1	0.71
6	RpL23 (Ribosomal protein L23)	1	-3.45
7	IM33 (Immune induced molecule 33)	1	-0.28
8	Pdha (Pyruvate dehydrogenase E1 alpha subunit)	1	0.55
9	retn (retained)	1	0
10	CG11449	1	-0.35
11	Prp38 (pre-mRNA processing factor 38)	1	-0.2
12	Toll-7	1	0.42
13	SRPK (SR Protein Kinase)	1	-0.3
14	nsr (novel spermatogenesis regulator)	1	0.08
15	nsr (novel spermatogenesis regulator)	2	0.11
16	CG17564	1	0.11
17	Elovl7 (ELOVL fatty acid elongase 7)	1	0.09
18	Elovl7 (ELOVL fatty acid elongase 7)	2	0.73
19	CG6966	1	-0.17
20	CG2852	1	-0.13
21	CG34224	1	-0.23
22	CG16812	1	0.53
23	CG42819	1	-0.63
24	morgue (modifier of rpr and grim, ubiquitously expressed)	1	-1.13
25	wwk (white walker)	1	0.2
26	Rbbp5 (Retinoblastoma binding protein 5)	1	0.03
27	CG5096	1	0.3
28	CG14252	1	-1.2
29	AIMP3 (aaRS-interacting multifunctional protein 3)	1	0.43
30	CG3795	1	0.74
31	Cyp6a8 (Cytochrome P450 6a8)	1	0.61
32	CG4041	1	0.67
33	mod(mdg4) (modifier of mdg4)	1	0.51
34	mod(mdg4) (modifier of mdg4)	2	-0.05
35	mod(mdg4) (modifier of mdg4)	3	1.08
36	mod(mdg4) (modifier of mdg4)	4	0.77
37	mod(mdg4) (modifier of mdg4)	5	-0.73
38	mod(mdg4) (modifier of mdg4)	6	0.18
39	CG13996	1	-0.05
40	CG8641	1	0.5
41	MSBP (membrane steroid binding protein)	1	0.87
42	dyl (dusky-like)	1	0.13
43	dyl (dusky-like)	2	0.79
44	CG5612	1	-0.94
45	Arpc2 (Actin-related protein 2/3 complex, subunit 2)	1	-1.75
46	Dhpr (Dihydropteridine reductase)	1	-0.11
47	CG32374	1	0.71
48	CG11664	1	0.56
49	CG11839	1	-0.04
50	Strump (Strumpellin)	1	0.26
51	CG8664	1	0.38
52	Mal-A5 (Maltase A5)	1	0.02
53	CG17192	1	0.01
54	RNaseZ (Ribonuclease Z)	1	-0.8
55	CG13155	1	0.22
56	GstE4 (Glutathione S transferase E4)	1	-0.41
57	Jon99Ciii (Jonah 99Ciii)	1	-0.86

Quoted from the listing for reference:
no.	target gene	dsRNA no.	replicate 1, z-score of dpERK with insulin
49	CG11839	1	-0.04
50	Strump (Strumpellin)	1	0.26
51	CG8664	1	0.38
52	Mal-A5 (Maltase A5)	1	0.02
53	CG17192	1	0.01
